Data on 47 compounds can be found in the supplement of paper PMC8090911.

Structures can show the parent of a compound that is named as a salt. This is one part of the list. Most values come without repeats; read them as rough.

The assay relates to p95-ErbB2-MCF7. Briefly: perinuclear lysosome accumulation (PNLA, size of LAMP2 puncta), robust Z-score vs plate median; higher = more perinuclear lysosome accumulation (reversal of invasive lysosome distribution). To be noted: 5 µM; 24 h.
Take `C[N+]1(CCCCC[N+]2(C)CCCC2)CCCC1` [Pentolinium bitartrate]: the perinuclear lysosome accumulation was 0.432. Next, `Oc1ncnc2[nH]ncc12` [Allopurinol]: 0.409; `CNCCCC1c2ccccc2C=Cc2ccccc21` [Protriptyline hydrochloride]: 0.94; `CCCCCCC[N+](CC)(CC)CCCCc1ccc(Cl)cc1` [Clofilium tosylate]: 0.766. For the compound `C[C@]12CCC(=O)C=C1CC[C@@H]1[C@@H]2[C@@H](O)C[C@@]2(C)[C@H]1CC[C@]2(O)C(=O)CO` [Hydrocortisone base], the perinuclear lysosome accumulation is -0.843. Consider `CC(C(=O)O)c1ccc2c(c1)Cc1cccnc1O2` (configuration not stated) [Pranoprofen], for which the perinuclear lysosome accumulation was -0.357. As for `CSc1ccc2c(c1)C(N1CCN(C)CC1)Cc1ccccc1S2` (configuration not stated) [Methiothepin maleate], the figure is 1.88; as for `Cc1c(C)c2c(c(C)c1O)CCC(C)(COc1ccc(CC3SC(=O)NC3=O)cc1)O2` (configuration not stated) [Troglitazone], -0.129.

Regarding `COC(c1ccccc1)(c1ccccc1)[C@H](Oc1nc(C)cc(C)n1)C(=O)O` [Ambrisentan], the perinuclear lysosome accumulation came to 1.76.

Turning to `COc1ccc([C@@H]2CC(=O)c3c(O)cc(O[C@@H]4O[C@H](CO[C@@H]5O[C@@H](C)[C@H](O)[C@@H](O)[C@H]5O)[C@@H](O)[C@H](O)[C@H]4O)cc3O2)cc1O` [Hesperidin], the perinuclear lysosome accumulation is -0.239. As for `CC(C)(C(=O)O)c1ccc(C(O)CCCN2CCC(C(O)(c3ccccc3)c3ccccc3)CC2)cc1` (configuration not stated) [Fexofenadine HCl], the figure is -1.78.

As for `NS(=O)(=O)c1cc(C(=O)O)cc(N2CCCC2)c1Oc1ccccc1` [Piretanide], the perinuclear lysosome accumulation is -1.6. As for `Cc1cc(C(C)(C)C)c(O)c(C)c1CC1=NCCN1` [Oxymetazoline hydrochloride], the figure is -0.911. Regarding `CN(C)CCCN1c2ccccc2Sc2ccccc21` [Promazine hydrochloride], the perinuclear lysosome accumulation amounted to 0.618.

Regarding `O=C(O)c1cccnc1Nc1cccc(C(F)(F)F)c1` [Niflumic acid], the perinuclear lysosome accumulation worked out at 0.0606. Consider `COc1ccc(C(Cl)=C(c2ccc(OC)cc2)c2ccc(OC)cc2)cc1` [Chlorotrianisene], for which the perinuclear lysosome accumulation is -3.12. As for `Cc1oncc1C(=O)Nc1ccc(C(F)(F)F)cc1` [Leflunomide], the figure is 1.19; as for `CCOC(=O)[C@H](CCc1ccccc1)N[C@@H](C)C(=O)N1Cc2ccccc2C[C@H]1C(=O)O` [Quinapril HCl], -0.686; as for `CC(CCc1ccccc1)NCC(O)c1ccc(O)c(C(N)=O)c1` (configuration not stated) [Labetalol hydrochloride], -1.4. As to `Cc1onc(-c2c(Cl)cccc2Cl)c1C(=O)N[C@@H]1C(=O)N2[C@@H]1SC(C)(C)[C@@H]2C(=O)O` [Dicloxacillin sodium salt], the perinuclear lysosome accumulation is -0.609. Turning to `CC[N+](C)(C)Cc1ccccc1Br` [Bretylium tosylate], the perinuclear lysosome accumulation was -0.767.

On to `C[N+](C)(C)CCCCCC[N+](C)(C)C` [Hexamethonium dibromide dihydrate], for which the perinuclear lysosome accumulation is -1.65. Next, `CN(C)/N=N/c1[nH]cnc1C(N)=O` [Dacarbazine]: -2.05; `Cc1cc2c(cc1S(N)(=O)=O)S(=O)(=O)CCC2` [Meticrane]: 0.844; `Clc1cnccn1` [2-Chloropyrazine]: 0.732. As for `CC1(C)S[C@@H]2[C@H](NC(=O)[C@H](NC(=O)N3CCNC3=O)c3ccccc3)C(=O)N2[C@H]1C(=O)O` [Azlocillin sodium salt], the figure is -1.2; as for `COC(=O)Nc1nc2cc(C(=O)c3ccccc3)ccc2[nH]1` [Mebendazole], 0.965.

As to `CC1(C)S[C@@H]2[C@H](NC(=O)[C@H](C(=O)O)c3ccsc3)C(=O)N2[C@H]1C(=O)O` [Ticarcillin sodium], the perinuclear lysosome accumulation was found to be 0.952. With `CN[C@@H]1[C@@H](O)[C@@H](O[C@@H]2[C@@H](O)[C@H](O[C@H]3OC(CN)=CC[C@H]3N)[C@@H](N)C[C@H]2N)OC[C@]1(C)O` [Sisomicin sulfate], the perinuclear lysosome accumulation came out at 0.454. As for `O=C1CN(/N=C/c2ccc(-c3ccc([N+](=O)[O-])cc3)o2)C(=O)N1` [Dantrolene sodium salt], the figure is 0.988.

As to `CCOC(=O)n1ccn(C)c1=S` [Carbimazole], the perinuclear lysosome accumulation was -0.554.

Consider `C[C@H](N)[C@H](O)c1cccc(O)c1` [Metaraminol bitartrate], for which the perinuclear lysosome accumulation worked out at 0.894.

`CCN(CC)CCOC(=O)C(Cc1cccc2ccccc12)CC1CCCO1` (configuration not stated) [Nafronyl oxalate]: the perinuclear lysosome accumulation turned out to be 0.0859. Next, `Cc1ccccc1OCC(O)CO` (configuration not stated) [Mephenesin]: 0.0327; `CCN(CC)C(=S)SSC(=S)N(CC)CC` [Disulfiram]: -2.33. As for `C/C(=C(\CCOP(=O)(O)O)SC(=O)c1ccccc1)N(C=O)Cc1cnc(C)nc1N` [Benfotiamine], the figure is 0.541; as for `O=C(CCCCCCC(=O)Nc1ccccc1)NO` [Vorinostat], 3.66. Next, `CC[C@H]1OC(=O)C[C@@H](O)[C@H](C)[C@@H](O[C@@H]2O[C@H](C)[C@@H](O[C@H]3C[C@@](C)(O)[C@@H](O)[C@H](C)O3)[C@H](N(C)C)[C@H]2O)[C@@H](CC=O)C[C@@H](C)C(=O)/C=C/C(C)=C/[C@@H]1CO[C@@H]1O[C@H](C)[C@@H](O)[C@@H](OC)[C@H]1OC` [Tylosin]: -1.38; `C[C@]12C[C@H](O)[C@H]3[C@@H](CCC4=CC(=O)CC[C@@]43C)[C@@H]1CC[C@@H]2C(=O)CO` [Corticosterone]: -2.01; `Nc1nc2c(ncn2COCCO)c(=O)[nH]1` [Acyclovir]: -0.235. For `CCCCCN(CCCCC)C(=O)C(CCC(=O)O)NC(=O)c1ccc(Cl)c(Cl)c1` (configuration not stated) [Lorglumide sodium salt], the perinuclear lysosome accumulation amounted to 2.04.

With `COc1ccc(C(=O)c2ccccc2)c(O)c1` [Oxybenzone], the perinuclear lysosome accumulation is -0.0942. Next, `COc1c(N2C[C@@H]3CCCN[C@@H]3C2)c(F)cc2c(=O)c(C(=O)O)cn(C3CC3)c12` [Moxifloxacin]: -1.56. Turning to `CC(=O)OCC(=O)[C@@]1(O)[C@H](C)C[C@H]2[C@@H]3CCC4=CC(=O)C=C[C@]4(C)[C@@]3(F)[C@@H](O)C[C@@]21C` [Dexamethasone acetate], the perinuclear lysosome accumulation was -1.71. As for `COc1ncnc(NS(=O)(=O)c2ccc(N)cc2)c1OC` [Sulfadoxine], the figure is 0.225; as for `CCOC(=O)C1=C(C)NC(C)=C(C(=O)OCC)C1c1ccccc1/C=C/C(=O)OC(C)(C)C` [Lacidipine], 1.06. As for `CCOc1cc(CC(=O)N[C@@H](CC(C)C)c2ccccc2N2CCCCC2)ccc1C(=O)O` [Repaglinide], the figure is -0.628.
